Experimental data from publication PMC3008608.
No constants are given. Whether binding was seen depends on the method and setting. Binding seen in cells or lysates may run through a third protein. Some binding calls cover weakened binding; strength is not graded here.

Amino acid sequences for entries named in this document (tags omitted).
UniProt Q07817: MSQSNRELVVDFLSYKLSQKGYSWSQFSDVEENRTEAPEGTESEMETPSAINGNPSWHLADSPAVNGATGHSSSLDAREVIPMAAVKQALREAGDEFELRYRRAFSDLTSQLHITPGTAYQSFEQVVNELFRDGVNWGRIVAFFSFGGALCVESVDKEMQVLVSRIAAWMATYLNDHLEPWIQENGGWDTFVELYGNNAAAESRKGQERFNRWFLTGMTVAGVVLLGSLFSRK
UniProt Q13323: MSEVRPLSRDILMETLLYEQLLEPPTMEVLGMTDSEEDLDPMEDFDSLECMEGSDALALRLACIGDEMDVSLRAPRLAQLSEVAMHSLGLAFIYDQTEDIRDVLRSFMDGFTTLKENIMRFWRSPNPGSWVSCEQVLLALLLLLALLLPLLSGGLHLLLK

Molecular target: Bcl-xL (human (endogenous in KMM-1)) (UniProt Q07817)
Experiment: co-IP; KMM-1 cells transfected with empty vector or Bik cDNA, harvested 24 h after transfection; lysates (1% digitonin lysis buffer); Bik, Bcl-2 and Bcl-xL immunoprecipitates analysed by western blot

- binding: binds
Substance: Bik-HA (ectopic Bik) (from UniProt Q13323 1-160)
